Molecules are shown by their SMILES. The list shows only some results of the screen, not a fair sample: it is rich in T/C values a quarter to a half above the control, in often repeated tests (any T/C) and in doses without a T/C. Other doses and runs of a compound stand elsewhere. T/C: endpoint of the treated group in % of that of the vehicle group. Some doses have a count of surviving animals in place of a T/C: the source holds a T/C of zero for them, seemingly a mark for toxic or unscored doses. Some survivor counts are full or nearly so, which does not show that the dose was tolerated: the source hardly ever lists a survival T/C far under the control, and the zero likely stands for such cases as well. Survivors were counted at the toxicity check, usually on the fifth day, unless a day is given; later deaths do not show. Schedules are NCI's codes, read here as Q, the interval in days (D) or hours (H), X, the number of doses. Some schedule codes hold Z or #, which are not explained here. For survival time, this PubChem deposit counts one and a half times the control or more as active, and values a quarter to a half above the control carry no call in these data; other NCI protocols may use other cut-offs. Some T/C values carry the count of animals alive at the toxicity check (mostly the fifth day); where none is given, no animal had died by that day.

The subject of the test is L1210 leukemia ip in BDF1 mice, survival T/C. Nature of the test: NCI In Vivo Anticancer Drug Screen. Data for tumor model L1210 Leukemia (intraperitoneal) in B6D2F1 (BDF1) mice. The conditions noted are these: T/C endpoint: mean survival time, higher T/C = longer survival.
The mark [1] stands for this setting: dose: 200.0 mg/kg/injection, schedule: Q04DX002 (ip), vehicle: Klucel (hydroxypropylcellulose) (HPC).
The mark [2] stands for this setting: dose: 400.0 mg/kg/injection, schedule: Q04DX002 (ip), vehicle: Klucel (hydroxypropylcellulose) (HPC).
Where [3] appears, read: dose: 400.0 mg/kg/injection, schedule: Q04DX003 (ip), vehicle: saline with Tween-80.
Where [4] appears, read: dose: 200.0 mg/kg/injection, schedule: Q01DX001 (ip), vehicle: saline.
Setting [5] is: dose: 400.0 mg/kg/injection, schedule: Q01DX001 (ip), vehicle: saline.
Setting [6] is: dose: 200.0 mg/kg/injection, schedule: Q04DX003 (ip), vehicle: saline with Tween-80.
[7] abbreviates: dose: 300.0 mg/kg/injection, schedule: Q01DX001 (ip), vehicle: acetone.
[8] abbreviates: dose: 150.0 mg/kg/injection, schedule: Q01DX001 (ip), vehicle: other.
Where [9] appears, read: dose: 400.0 mg/kg/injection, schedule: Q01DX009 (ip), vehicle: Klucel (hydroxypropylcellulose) (HPC).

For the molecule `CNC=O`, the T/C is 125 % of control (dose: 88.25 mg/kg/injection, schedule: Q01DX Z (ip), vehicle: carboxymethylcellulose (CMC)); 136 % of control (dose: 250.0 mg/kg/injection, schedule: Q01DX Z (ip), vehicle: saline); 135 % of control (dose: 300.0 mg/kg/injection, schedule: Q01DX Z (ip), vehicle: saline); 144 % of control (dose: 500.0 mg/kg/injection, schedule: Q01DX015 (ip), vehicle: saline); 125 % of control (dose: 500.0 mg/kg/injection, schedule: Q01DX Z (ip), vehicle: saline); 146 % of control (dose: 600.0 mg/kg/injection, schedule: Q01DX009 (ip), vehicle: saline).
Consider `CC[CH2][Pb]([CH2]CC)([CH2]CC)[O]C(=O)C(F)(F)F`, for which the survivor count by setting is: (dose: 50.0 mg/kg/injection, schedule: Q04DX002 (ip), vehicle: Klucel (hydroxypropylcellulose) (HPC)) 0 of 3; (dose: 100.0 mg/kg/injection, schedule: Q04DX002 (ip), vehicle: Klucel (hydroxypropylcellulose) (HPC)) 0 of 3; under setting [1], 0 of 3; under setting [2], 2 of 3.
On to `O=C(O)C(O)c1ccc(Cl)cc1` (stereo unspecified), for which the survivor count (dose: 400.0 mg/kg/injection, schedule: Q01DX009 (ip), vehicle: saline) was 0 of 6.
With `O=C(COc1ccc(Cl)c(Cl)c1)NCCc1cc[n+](Cc2ccc(S(=O)(=O)F)cc2)cc1`, the survivor count under setting [3] is 0 of 6.
As to `CCN(CC)C(=Nc1ccc(NC(=O)c2ccc(C(=O)Nc3ccc(N=C(c4ccccc4)N(CC)CC)cc3)cc2)cc1)c1ccccc1`, the survivor count (dose: 240.0 mg/kg/injection, schedule: Q01DX Z (ip), vehicle: water) is given as 3 of 6 and the survivor count (dose: 480.0 mg/kg/injection, schedule: Q01DX Z (ip), vehicle: water) is given as 1 of 6.
Take `CNc1ccc(/C=C2\C=Cc3ccccc32)cc1Cl`: where the note is “dose: 200.0 mg/kg/injection, schedule: Q01DX001 (ip), vehicle: carboxymethylcellulose (CMC)”, the survivor count is reported as 4 of 4.
For `NCCCCC(N)C(=O)Nc1ccc(Cc2ccc(NC(=O)C(N)CCCCN)cc2)cc1` (stereo unspecified), the survivor count by setting is: under setting [4], 1 of 4; under setting [5], 0 of 4.
For the molecule `Clc1ccc(-c2ncc3cnccn23)cc1Cl`, the survivor count (dose: 100.0 mg/kg/injection, schedule: Q01DX009 (ip), vehicle: saline with Tween-80) is on record as 3 of 6; the survivor count under setting [6] is reported as 2 of 6; the survivor count under setting [3] is given as 0 of 6.
As to `CC1CC2(C)C(CC1=O)CC(C)C1C2CCC2(C)C1CCC2(C)O` (stereo unspecified), under “dose: 400.0 mg/kg/injection, schedule: Q01DX009 (ip), vehicle: saline with Tween-80”, the survivor count is recorded as 4 of 6.
As to `CCOc1ccc(Br)cc1/C=C(\C#N)c1ccc([N+](=O)[O-])cc1`, the survivor count is recorded as 6 of 6 (dose: 12.5 mg/kg/injection, schedule: Q01DX009 (ip), vehicle: saline with Tween-80); 5 of 6 (dose: 50.0 mg/kg/injection, schedule: Q01DX009 (ip), vehicle: saline with Tween-80); 6 of 6 (dose: 100.0 mg/kg/injection, schedule: Q04DX003 (ip), vehicle: saline with Tween-80); 6 of 6 under setting [6]; 6 of 6 under setting [3].
As for `CC(C)N1C(=O)c2cccc3c(Br)ccc(c23)C1=O`, for the setting “dose: 400.0 mg/kg/injection, schedule: Q04DX003 (ip), vehicle: Klucel (hydroxypropylcellulose) (HPC)”, the survivor count is 1 of 6.
As for `CCOC(=O)c1[nH]c(C)c(CCCC(=O)O)c1C`, the survivor count under setting [7] is reported as 0 of 6.
With `COC1=C(N)C(=O)c2ncccc2C1=O`, the survivor count (dose: 32.0 mg/kg/injection, schedule: Q01DX009 (ip), vehicle: acetone) is 0 of 6.
For `CCC(=O)NC`, under “dose: 1250.0 mg/kg/injection, schedule: Q01DX015 (ip), vehicle: water”, the T/C was 147 % of control [5 of 6 alive]. Moreover, the survivor count (dose: 1500.0 mg/kg/injection, schedule: Q01DX015 (ip), vehicle: water) is reported as 6 of 6.
In the case of `Nc1nnnc2c1ncn2C1CCCC1`, the survivor count reads like this: under setting [8], 0 of 6; (dose: 300.0 mg/kg/injection, schedule: Q01DX001 (ip), vehicle: other) 0 of 6.
Take `OC1COC(c2ccco2)OC1` (stereo unspecified) (tested in a mixture with another compound): the survivor count under setting [9] is listed as 3 of 6.
With `[N-]=[N+]=C1N=C(Cl)N=C1c1ncn[nH]1`, for the setting “dose: 200.0 mg/kg/injection, schedule: Q01DX001 (ip), vehicle: Klucel (hydroxypropylcellulose) (HPC)”, the survivor count was 1 of 3.
With `COc1cccc(CCN)c1`, the survivor count under setting [5] is given as 1 of 4.
For `O=NN(CCF)C(=O)NC1CCSc2ccccc21` (stereo unspecified), under “dose: 13.0 mg/kg/injection, schedule: Q01DX001 (ip), vehicle: other”, the T/C is 141 % of control. For the same molecule, the survivor count is, setting by setting: (dose: 44.0 mg/kg/injection, schedule: Q01DX001 (ip), vehicle: other) 3 of 10; (dose: 67.0 mg/kg/injection, schedule: Q01DX001 (ip), vehicle: other) 0 of 10; (dose: 100.0 mg/kg/injection, schedule: Q01DX001 (ip), vehicle: other) 0 of 10; under setting [8], 0 of 10.
With `N=C(N)Sc1cccc[n+]1[O-]`, the survivor count under setting [5] is reported as 0 of 6.
For `COc1cccc(C(=O)NC[n+]2ccccc2)c1`, the survivor count (dose: 100.0 mg/kg/injection, schedule: Q01DX009 (ip), vehicle: saline) was 4 of 6.
Take `O=[N+]([O-])c1cccc(Cl)c1Oc1cc(Cl)c(Cl)cc1Cl`: the survivor count by setting is: (dose: 20.0 mg/kg/injection, schedule: Q01DX001 (ip), vehicle: saline) 6 of 6; (dose: 40.0 mg/kg/injection, schedule: Q01DX001 (ip), vehicle: saline) 6 of 6; (dose: 75.0 mg/kg/injection, schedule: Q01DX001 (ip), vehicle: acetone) 4 of 6; (dose: 150.0 mg/kg/injection, schedule: Q01DX001 (ip), vehicle: acetone) 3 of 6; under setting [7], 0 of 6.
On to `CCOc1ccc(N=O)c(O)c1`, for which the survivor count (dose: 300.0 mg/kg/injection, schedule: Q01DX001 (ip), vehicle: carboxymethylcellulose (CMC)) was 2 of 6.
On to `O=C1OCC/C1=C\CCCCCCCCC1CO1` (stereo unspecified), for which the survivor count is, setting by setting: (dose: 200.0 mg/kg/injection, schedule: Q04DX002 (ip), vehicle: saline) 2 of 3; (dose: 400.0 mg/kg/injection, schedule: Q04DX002 (ip), vehicle: saline) 0 of 3.
As for `O=C(CCC(=O)[O][Sn]([c]1ccccc1)([c]1ccccc1)[c]1ccccc1)[O][Sn]([c]1ccccc1)([c]1ccccc1)[c]1ccccc1`, the survivor count by setting is: (dose: 6.25 mg/kg/injection, schedule: Q01DX009 (ip), vehicle: saline with Tween-80) 0 of 6; (dose: 12.5 mg/kg/injection, schedule: Q04DX003 (ip), vehicle: saline with Tween-80) 3 of 6; (dose: 25.0 mg/kg/injection, schedule: Q04DX003 (ip), vehicle: saline with Tween-80) 4 of 6; (dose: 50.0 mg/kg/injection, schedule: Q01DX001 (ip), vehicle: saline) 0 of 6; (dose: 100.0 mg/kg/injection, schedule: Q01DX001 (ip), vehicle: saline) 1 of 6; under setting [4], 0 of 6. Besides, the survivor count under setting [5] is reported as 0 of 6.
With `Cc1cccc(C)c1NC(=O)N1CCN(C)CC1`, the survivor count under setting [1] is 3 of 3, the survivor count under setting [9] is given as 2 of 6 and the survivor count under setting [2] was 3 of 3.

Values taken from PubChem BioAssay AID248 (DTP/NCI, 2004).
